Results taken from US10980755B2, “LRH-1 modulators” (THE REGENTS OF THE UNIVERSITY OF CALIFORNIA, priority 2015, dated 2021).

Tested on: hLRH-1 expression
Assay: hLRH-1 transcript (RT-qPCR) and protein (Western blot, anti-Flag) levels in HepG2-hLRH-1 cells
Assay type: cell-based, human

`CCCNC(=O)c1cc(C(C)(C)C)cc(C(C)(C)C)c1O` [Compound 8, 3,5-di-tert-butyl-2-hydroxy-N-propylbenzamide] was tested, and the hLRH-1 transcripts (HepG2-hLRH-1 cells expressing low levels of hLRH-1, PME8 10 μM) was “did not change” and the hLRH-1 protein levels (HepG2-hLRH-1 cells, Western blot with anti-Flag antibody, listed as PME8) was “did not change; also recorded: unaffected”.

Entries after “also recorded” stand apart in the source; their conditions may differ.
